{"sequences": {"note": "Sequences of proteins named here, by UniProt entry; tags and fusion partners are left off. A change or cut given only in a name is not applied to a line headed by its entry.", "UniProt P01106": "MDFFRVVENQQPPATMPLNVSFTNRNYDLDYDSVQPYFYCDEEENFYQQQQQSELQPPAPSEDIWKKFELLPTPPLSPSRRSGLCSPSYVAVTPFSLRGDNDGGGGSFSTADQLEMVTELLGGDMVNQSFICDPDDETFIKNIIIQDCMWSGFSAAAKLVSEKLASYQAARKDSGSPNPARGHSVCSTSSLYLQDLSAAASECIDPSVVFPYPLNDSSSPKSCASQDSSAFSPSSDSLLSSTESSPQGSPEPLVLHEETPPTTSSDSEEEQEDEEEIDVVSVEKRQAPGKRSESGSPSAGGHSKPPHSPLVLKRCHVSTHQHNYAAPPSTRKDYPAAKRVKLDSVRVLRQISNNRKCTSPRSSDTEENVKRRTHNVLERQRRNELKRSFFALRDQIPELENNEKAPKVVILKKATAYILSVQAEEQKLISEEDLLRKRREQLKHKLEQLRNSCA", "UniProt O15379": "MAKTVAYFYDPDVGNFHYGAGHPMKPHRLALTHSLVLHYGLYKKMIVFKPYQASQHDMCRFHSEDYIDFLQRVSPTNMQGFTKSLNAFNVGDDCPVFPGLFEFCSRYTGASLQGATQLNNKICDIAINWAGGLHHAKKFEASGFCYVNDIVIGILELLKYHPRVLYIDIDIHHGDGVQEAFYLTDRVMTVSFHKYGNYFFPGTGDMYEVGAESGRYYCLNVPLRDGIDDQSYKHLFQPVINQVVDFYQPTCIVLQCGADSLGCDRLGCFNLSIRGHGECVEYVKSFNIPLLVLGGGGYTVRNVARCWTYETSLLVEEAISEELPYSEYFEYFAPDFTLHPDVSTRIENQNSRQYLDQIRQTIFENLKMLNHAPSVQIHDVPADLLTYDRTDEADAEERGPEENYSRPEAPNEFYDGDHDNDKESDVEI", "UniProt Q92830": "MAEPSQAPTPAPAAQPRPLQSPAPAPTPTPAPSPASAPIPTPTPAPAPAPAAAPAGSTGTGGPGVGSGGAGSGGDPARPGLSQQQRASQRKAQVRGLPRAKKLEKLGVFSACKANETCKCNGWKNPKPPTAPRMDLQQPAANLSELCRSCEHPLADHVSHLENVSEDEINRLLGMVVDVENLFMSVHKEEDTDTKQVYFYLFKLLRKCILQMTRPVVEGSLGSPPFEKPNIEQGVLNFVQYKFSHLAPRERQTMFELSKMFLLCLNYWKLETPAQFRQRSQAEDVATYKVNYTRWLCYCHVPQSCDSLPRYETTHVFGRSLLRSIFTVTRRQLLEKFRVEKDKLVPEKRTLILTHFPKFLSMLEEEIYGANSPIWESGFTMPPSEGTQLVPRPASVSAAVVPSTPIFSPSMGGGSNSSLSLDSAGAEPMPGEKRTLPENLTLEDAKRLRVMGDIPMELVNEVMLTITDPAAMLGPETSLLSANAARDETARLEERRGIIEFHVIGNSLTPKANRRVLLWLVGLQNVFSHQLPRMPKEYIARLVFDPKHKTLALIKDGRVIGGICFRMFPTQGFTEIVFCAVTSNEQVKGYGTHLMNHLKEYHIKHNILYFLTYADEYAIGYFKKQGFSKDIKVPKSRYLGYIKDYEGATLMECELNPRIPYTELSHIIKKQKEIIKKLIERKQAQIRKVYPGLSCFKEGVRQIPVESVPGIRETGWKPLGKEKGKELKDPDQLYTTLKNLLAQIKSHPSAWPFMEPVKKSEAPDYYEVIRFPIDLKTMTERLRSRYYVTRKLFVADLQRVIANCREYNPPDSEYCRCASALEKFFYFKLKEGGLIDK", "UniProt Q92993": "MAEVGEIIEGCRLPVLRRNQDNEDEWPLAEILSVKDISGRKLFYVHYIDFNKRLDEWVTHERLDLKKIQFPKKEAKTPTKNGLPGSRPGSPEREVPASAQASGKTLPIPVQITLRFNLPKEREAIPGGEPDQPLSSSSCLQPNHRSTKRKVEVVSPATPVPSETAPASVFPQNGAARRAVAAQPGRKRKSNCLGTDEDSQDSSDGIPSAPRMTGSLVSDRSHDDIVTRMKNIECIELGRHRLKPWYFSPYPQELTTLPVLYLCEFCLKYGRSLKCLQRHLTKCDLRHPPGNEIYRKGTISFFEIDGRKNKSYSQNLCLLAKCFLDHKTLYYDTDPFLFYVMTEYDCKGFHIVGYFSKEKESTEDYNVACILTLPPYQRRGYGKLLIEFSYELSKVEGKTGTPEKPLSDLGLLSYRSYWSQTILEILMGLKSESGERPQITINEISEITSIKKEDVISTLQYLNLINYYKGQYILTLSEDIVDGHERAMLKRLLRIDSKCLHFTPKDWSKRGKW"}, "source": "paper PMC10517016", "about": "“SCARB2 drives hepatocellular carcinoma tumor initiating cells via enhanced MYC transcriptional activity” (Nature Communications, 2023)", "key": {"[1]": {"molecular_target": "MYC (endogenous, wild type) (human (endogenous in HCCLM3)) (UniProt P01106)", "experiment": "co-IP; endogenous co-IP in MYC^WT and MYC^K148R HCCLM3 cells; precipitating antibody not told"}, "[2]": {"molecular_target": "HDAC3 (endogenous) (human (endogenous in HCCLM3)) (UniProt O15379)", "experiment": "co-IP; endogenous proteins in whole extracts of HCCLM3 cells; antibody overnight at 4 °C, then Protein A/G agarose; cells with or without SCARB2 knockout or overexpression, DMSO or PMB (IP with anti-SCARB2 antibody in the PMB panel)"}, "[3]": {"molecular_target": "T1, Scavenger receptor class B member 2 (SCARB2), endogenous (human (endogenous in HCCLM3)) (UniProt Q14108)", "T1 sequence": "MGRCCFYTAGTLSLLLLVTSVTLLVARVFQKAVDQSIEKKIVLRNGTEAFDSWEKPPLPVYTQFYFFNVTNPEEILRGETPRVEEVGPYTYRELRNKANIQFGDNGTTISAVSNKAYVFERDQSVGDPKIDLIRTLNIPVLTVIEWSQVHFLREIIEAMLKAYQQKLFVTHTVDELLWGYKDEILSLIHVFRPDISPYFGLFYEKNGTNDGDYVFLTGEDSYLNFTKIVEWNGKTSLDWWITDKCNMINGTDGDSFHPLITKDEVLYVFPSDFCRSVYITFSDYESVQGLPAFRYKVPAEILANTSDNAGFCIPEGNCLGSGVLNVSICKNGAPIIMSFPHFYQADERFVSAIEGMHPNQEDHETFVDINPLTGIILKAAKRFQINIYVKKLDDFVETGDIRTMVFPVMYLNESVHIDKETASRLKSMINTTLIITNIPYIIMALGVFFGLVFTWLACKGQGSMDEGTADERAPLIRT", "experiment": "co-IP; endogenous proteins in whole extracts of HCCLM3 cells; antibody overnight at 4 °C, then Protein A/G agarose; cells with or without SCARB2 knockout or overexpression, DMSO or PMB (IP with anti-SCARB2 antibody in the PMB panel)"}, "[4]": {"molecular_target": "T1, Scavenger receptor class B member 2 (SCARB2), endogenous (human (endogenous in HCCLM3))", "experiment": "co-IP; endogenous proteins; cytomembrane fraction of HCCLM3 cells"}, "[5]": {"molecular_target": "T1, Scavenger receptor class B member 2 (SCARB2), endogenous (human (endogenous in HCCLM3))", "experiment": "co-IP; endogenous proteins; cytoplasm and nucleus fractions of HCCLM3 cells"}, "[6]": {"molecular_target": "HDAC3-HA-tag (human) (UniProt O15379)", "experiment": "co-IP; HEK 293T cells cotransfected with MYC constructs (GFP tag) and SCARB2 (Myc tag) or HDAC3 (HA tag); extracts IP with anti-Myc or anti-HA antibody"}, "[7]": {"molecular_target": "T2, SCARB2-Myc-tag (human) (UniProt Q14108)", "T2 sequence": "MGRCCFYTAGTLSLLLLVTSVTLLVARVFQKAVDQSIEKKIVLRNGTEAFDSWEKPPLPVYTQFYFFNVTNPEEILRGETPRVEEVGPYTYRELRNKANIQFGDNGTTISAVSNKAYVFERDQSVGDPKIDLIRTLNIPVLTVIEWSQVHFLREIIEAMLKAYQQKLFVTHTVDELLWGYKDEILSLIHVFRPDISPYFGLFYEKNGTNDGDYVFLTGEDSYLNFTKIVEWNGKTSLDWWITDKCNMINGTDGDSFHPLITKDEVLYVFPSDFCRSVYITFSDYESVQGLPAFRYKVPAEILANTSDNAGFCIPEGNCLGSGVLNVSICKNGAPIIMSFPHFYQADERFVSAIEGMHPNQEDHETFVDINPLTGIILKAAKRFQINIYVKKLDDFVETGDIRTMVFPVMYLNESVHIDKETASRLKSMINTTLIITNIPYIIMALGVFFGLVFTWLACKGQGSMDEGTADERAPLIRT", "experiment": "co-IP; HEK 293T cells cotransfected with MYC constructs (GFP tag) and SCARB2 (Myc tag) or HDAC3 (HA tag); extracts IP with anti-Myc or anti-HA antibody"}, "[8]": {"molecular_target": "MYC-Flag-tag (human) (UniProt P01106)", "experiment": "co-IP; HEK 293T cells cotransfected with SCARB2 constructs (Myc-tagged) and MYC (Flag-tagged); extracts IP with anti-Flag"}}, "note": "Results are given in words; binding and its absence hold for the method and conditions named. Binding seen in cells or lysates may run through a third protein. Some results given as binding are weak or reduced against the parent protein; the word gives no strength. For some assays here: Tags and fused reporters may be left off the sequences shown.", "data": [{"molecule": "GCN5 (endogenous) (from UniProt Q92830 1-837)", "values": [{"measurement": "binding", "setting": "[1]", "result": "binds"}]}, {"molecule": "KAT5 (endogenous) (from UniProt Q92993 1-513)", "values": [{"measurement": "binding", "setting": "[1]", "result": "binds"}]}, {"molecule": "MYC (endogenous, wild type) (from UniProt P01106-2 1-454)", "values": [{"measurement": "binding", "setting": "[2]", "result": "binds"}, {"measurement": "binding", "setting": "[3]", "result": "binds"}, {"measurement": "binding", "setting": "[4]", "result": "no binding (condition: in the cytomembrane fraction)"}, {"measurement": "binding", "setting": "[5]", "result": "binds"}]}, {"molecule": "MYC central region (amino acids 144-360), GFP tag (from UniProt P01106 144-360) (domain or fragment)", "values": [{"measurement": "binding", "setting": "[6]", "result": "binds"}, {"measurement": "binding", "setting": "[7]", "result": "binds"}]}, {"molecule": "MYC-N (amino acids 1-144), GFP tag (from UniProt P01106 1-144) (domain or fragment)", "values": [{"measurement": "binding", "setting": "[6]", "result": "binds"}, {"measurement": "binding", "setting": "[7]", "result": "binds"}]}, {"molecule": "SCARB2-Myc-tag (protein, UniProt Q14108 1-478) MGRCCFYTAGTLSLLLLVTSVTLLVARVFQKAVDQSIEKKIVLRNGTEAFDSWEKPPLPVYTQFYFFNVTNPEEILRGETPRVEEVGPYTYRELRNKANIQFGDNGTTISAVSNKAYVFERDQSVGDPKIDLIRTLNIPVLTVIEWSQVHFLREIIEAMLKAYQQKLFVTHTVDELLWGYKDEILSLIHVFRPDISPYFGLFYEKNGTNDGDYVFLTGEDSYLNFTKIVEWNGKTSLDWWITDKCNMINGTDGDSFHPLITKDEVLYVFPSDFCRSVYITFSDYESVQGLPAFRYKVPAEILANTSDNAGFCIPEGNCLGSGVLNVSICKNGAPIIMSFPHFYQADERFVSAIEGMHPNQEDHETFVDINPLTGIILKAAKRFQINIYVKKLDDFVETGDIRTMVFPVMYLNESVHIDKETASRLKSMINTTLIITNIPYIIMALGVFFGLVFTWLACKGQGSMDEGTADERAPLIRT", "values": [{"measurement": "binding", "setting": "[8]", "result": "binds"}]}]}
